Patent publication US20200268897A1, “Phosphatase Binding Compounds and Methods of Using Same” (Yale University, priority 2019, published 2020)
At least one compound was matched to its structure with a doubt left. *1 amine or outer side, *2 acyl side, *3 side chain or, on linkers, in order; H or OH if unused. Where a SMILES comes first, the peptide text is derived from it. [ ]: non-standard residue; d: D form. The star is where a group is joined. X2 = CN(CCCNc1nc(Nc2ccc(OCCN*)cc2)ncc1Br)C(=O)C1CCC1; NH(CH2CH2O)4CH2CO = O=C(COCCOCCOCCOCCN[*:1])[*:2]; Suc = O=C(CCC(=O)[*:2])[*:1]; AEEEA = NCCOCCOCCOCC(=O)O; AEEA = NCCOCCOCC(=O)O; NHOctyl = CCCCCCCCN*; AEA = NCCOCC(=O)O

What follows are compounds tested against T1, pTBK1 Serine172 (Homo sapiens, UniProt Q9UHD2) (assay: Concentration-response (DP50) for dephosphorylation of pTBK1 Serine172 in THP1 cells (Example 37)). Settings: DP50 = concentration at which 50% dephosphorylation is achieved, read-out: pTBK1 S172 DP50.
T1 construct: 200,000 THP1 cells (ATCC TIB-202) were seeded into each well of a 96 well plate; endogenous in cells; host or cells: THP1 (ATCC TIB-202)
T1 sequence (Q9UHD2 1-729): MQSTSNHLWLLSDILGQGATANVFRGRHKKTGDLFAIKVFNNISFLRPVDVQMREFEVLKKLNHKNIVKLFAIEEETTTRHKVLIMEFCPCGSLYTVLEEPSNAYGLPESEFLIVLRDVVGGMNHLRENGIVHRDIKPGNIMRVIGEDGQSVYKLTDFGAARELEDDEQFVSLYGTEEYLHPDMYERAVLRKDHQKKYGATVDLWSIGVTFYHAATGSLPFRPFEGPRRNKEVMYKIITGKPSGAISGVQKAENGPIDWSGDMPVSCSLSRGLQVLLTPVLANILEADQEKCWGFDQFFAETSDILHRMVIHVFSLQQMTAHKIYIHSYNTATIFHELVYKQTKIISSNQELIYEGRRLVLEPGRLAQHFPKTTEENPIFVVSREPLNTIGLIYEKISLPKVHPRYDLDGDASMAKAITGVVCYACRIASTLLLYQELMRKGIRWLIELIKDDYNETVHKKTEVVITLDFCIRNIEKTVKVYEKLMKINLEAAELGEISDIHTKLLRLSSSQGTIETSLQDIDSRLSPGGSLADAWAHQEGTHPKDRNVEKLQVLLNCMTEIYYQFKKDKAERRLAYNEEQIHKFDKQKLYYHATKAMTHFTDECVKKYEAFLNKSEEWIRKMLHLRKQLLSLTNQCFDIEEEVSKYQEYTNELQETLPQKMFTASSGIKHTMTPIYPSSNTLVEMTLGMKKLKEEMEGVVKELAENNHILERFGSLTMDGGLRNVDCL
Type: cell-based

SMILES	EC50 [µM]
CCCCCCCCNC(=O)[C@H](Cc1ccccc1)NC(=O)[C@H](CO)NC(=O)[C@@H](NC(=O)[C@H](CCCNC(=N)N)NC(=O)CNC(=O)CCC(=O)NCCOc1ccc(Nc2ncc(Br)c(NCCCN(C)C(=O)C3CCC3)n2)cc1)C(C)C [Compound I-190, (TBK1-succinate)-(0PEG-RVSF-NOct)] ({X2-Suc}-GRVSF-NHOctyl; N-terminus and C-terminus assumed)	> 225
CCCCCCCCNC(=O)[C@H](Cc1ccccc1)NC(=O)[C@H](CO)NC(=O)[C@@H](NC(=O)[C@H](CCCNC(=N)N)NC(=O)COCCOCCOCCNC(=O)CCC(=O)NCCOc1ccc(Nc2ncc(Br)c(NCCCN(C)C(=O)C3CCC3)n2)cc1)C(C)C [Compound I-199, (TBK1-succinate)-(3PEG-RVSF-NOct)] ({X2-Suc-AEEEA}-RVSF-NHOctyl; N-terminus and C-terminus assumed)	< 65
CCCCCCCCNC(=O)[C@H](Cc1ccccc1)NC(=O)[C@H](CO)NC(=O)[C@@H](NC(=O)[C@H](CCCNC(=N)N)NC(=O)COCCOCCNC(=O)CCC(=O)NCCOc1ccc(Nc2ncc(Br)c(NCCCN(C)C(=O)C3CCC3)n2)cc1)C(C)C [Compound I-196, (TBK1-succinate)-(2PEG-RVSF-NOct)] ({X2-Suc-AEEA}-RVSF-NHOctyl; N-terminus and C-terminus assumed)	< 65
CCCCCCCCNC(=O)[C@H](Cc1ccccc1)NC(=O)[C@H](CO)NC(=O)[C@@H](NC(=O)[C@H](CCCNC(=N)N)NC(=O)COCCOCCOCCOCCNC(=O)CCC(=O)NCCOc1ccc(Nc2ncc(Br)c(NCCCN(C)C(=O)C3CCC3)n2)cc1)C(C)C [Compound I-202, (TBK1-succinate)-(4PEG-RVSF-NOct)] ({X2-Suc}-[NH(CH2CH2O)4CH2CO]RVSF-NHOctyl; N-terminus and C-terminus assumed)	> 225
CCCCCCCCNC(=O)[C@H](Cc1ccccc1)NC(=O)[C@H](CO)NC(=O)[C@@H](NC(=O)[C@H](CCCNC(=N)N)NC(=O)COCCNC(=O)CCC(=O)NCCOc1ccc(Nc2ncc(Br)c(NCCCN(C)C(=O)C3CCC3)n2)cc1)C(C)C [Compound I-193, (TBK1-succinate)-(1PEG-RVSF-NOct)] ({X2-Suc-AEA}-RVSF-NHOctyl; N-terminus and C-terminus assumed)	> 225
